Measured values published in US6579967B1 (The Salk Institute for Biological Studies, priority 1999, dated 2003).

Test: Boc solid-phase peptide synthesis; chloromethylated resin
Conditions: whole synthesis, capillary zone electrophoresis

(cyclo)H-Cys-Phe-Tyr-D-Agl(Me,2Np)-Lys-Thr-Phe-Cys-OH
final purity (method not given): greater than 95% pure
